Double positive events and percent response (vesicle binding) data for 40 molecules are collected here from PubChem BioAssay AID2810 (NMMLSC, 2010).

Molecules are shown by their SMILES. The list shows a part of the results. The main result of the screen is listed elsewhere. These columns were measured beside it and carry no call.

The experiment is described as follows: modulators of CD8 T cell-vesicle binding, confirmation, cherry-picked primary hits, two concentrations (AID 2810).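 For all read-outs here: lower values mean blocking of vesicle binding.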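 For percent response (vesicle binding): ratio of mean FL2 vesicle stain of CD8+ cells to that row's control.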 As to conditions: 2C CD8+ T cell-vesicle binding, flow cytometry; for double positive events: CD8+/vesicle+ events.
Where [1] appears, read: at 15.4 µM, stronger effect = lower value.

For the setting “at 7.7 µM”, `O=[N+]([O-])c1cc(C(F)(F)F)ccc1NN=C1CCCC1` came in with a double positive events of 23.3% and a percent response (vesicle binding) of 260%. Besides, the double positive events under setting [1] is 18.7%.
Taken in the same sequence, the figures for `O=C(N/N=C/c1ccc(O)c(O)c1)c1ccc(-n2cnnn2)cc1` were 16.6%, 112% and 30.6%.
For `Cc1[nH]c2ccc(F)cc2c1CCNC(=O)C1CCCCC1C(=O)OCC(F)(F)F` (stereo not given) the same measures were 15.2%, 462% and 17.1%.
Where the note is “at 7.7 µM”, `CCOC(=O)C1(Cc2cccc(Cl)c2)CCCN(C(=O)c2ccc(COC)s2)C1` (stereo not given) came in with a double positive events of 18.4% and a percent response (vesicle binding) of 232%. The double positive events under setting [1] was 29.2%.
For `C/C(=N\NC(=O)COc1ccc(C(C)(C)C)cc1)c1ccc(OC(F)F)cc1` the same measures were 14.7%, 298% and 5.6%.
For `N#Cc1cccc(S(=O)(=O)NNC(=O)C23CC4CC(CC(C4)C2)C3)c1` the same measures were 8.4%, 300% and 16.5%.
Taken in the same sequence, the figures for `O=C(NC1c2ccccc2-c2ccccc21)N1CCOCC1` were 12.7%, 367% and 15.2%.
As for `CCOC(=O)C(NC(=O)Nc1ccc(F)cc1F)(Oc1ccccc1)C(F)(F)F` (stereo not given), under “at 7.7 µM”, the double positive events amounted to 19.3% and the percent response (vesicle binding) was found to be 187%. Moreover, the double positive events under setting [1] was 15.2%.
For `N#Cc1nc(Cc2cccc3ccccc23)oc1NCCN1CCOCC1` the same measures were 33.7%, 369% and 8.8%.
Taken in the same sequence, the figures for `CSC1=NCCN1C(=O)Cc1ccc(F)cc1` were 11.4%, 161% and 27%.
`Cc1c(C)c2c(OCC(=O)NCC(O)c3ccccc3)cc3c(c2oc1=O)CCC(C)(C)O3` (stereo not given) displayed a double positive events (at 7.7 µM) of 18.8% and a double positive events under setting [1] of 2.1%. This molecule also yielded a percent response (vesicle binding) (at 7.7 µM) of 284%.
Consider `O=C(Nc1nccs1)c1cc(-c2ccccc2)nc2ccccc12`, for which, under “at 7.7 µM”, the double positive events turned out to be 12.3% and the percent response (vesicle binding) came to 91.5%. The same molecule gave a double positive events under setting [1] of 26.9%.
Taken in the same sequence, the figures for `O=C(COC(=O)CCC(=O)c1ccc(F)cc1)NC1CCCCC1` were 35.4%, 250% and 23.8%.
Take `CCOC(=O)Nc1sc(C)c(C)c1C(N)=O`: where the note is “at 7.7 µM”, the double positive events was 25.8% and the percent response (vesicle binding) was 322%. This molecule also displayed a double positive events under setting [1] of 3.2%.
Take `N=C1/C(=C/c2cccn2-c2ccc([N+](=O)[O-])cc2)C(=O)N=C2SC=CN12`: for the setting “at 7.7 µM”, the double positive events worked out at 30.1% and the percent response (vesicle binding) is 63.6%. Moreover, the double positive events under setting [1] amounted to 15%.
For the setting “at 7.7 µM”, `COc1ccc2[nH]c3c(c2c1)CCn1c-3nc2ccccc2c1=O` showed a double positive events of 17.9% and a percent response (vesicle binding) of 115%. Further, the double positive events under setting [1] was 19.2%.
For `Cc1cc(C)n(C(=O)c2sc3cc(F)ccc3c2Cl)n1` the same measures were 26.6%, 327% and 13%.
Consider `O=C(CN1CCCCC1)N1CCCc2c1c(=O)oc1ccc(OCc3ccccc3)cc21`, for which, under “at 7.7 µM”, the double positive events came to 14.9% and the percent response (vesicle binding) is 123%. The molecule further gave a double positive events under setting [1] of 5.5%.
For `COc1ccc2c(CC(=O)OCC(=O)Nc3ccc(C)cc3)coc2c1` the same measures were 42.6%, 198% and 25.4%.
For `Cc1cc2c(cc1S(=O)(=O)NCCc1ccccc1)NC(=O)CO2` the same measures were 20.7%, 187% and 23.9%.
For the setting “at 7.7 µM”, `CC(Sc1ncnc2sccc12)C(=O)Nc1ccc(S(N)(=O)=O)cc1` (stereo not given) gave a double positive events of 13.6% and a percent response (vesicle binding) of 119%. For the same molecule, the double positive events under setting [1] amounted to 18.4%.
For `COc1cccc(OC)c1-c1nnc(-c2cn(C)c3ccccc23)o1` the same measures were 14.9%, 97.9% and 12.7%.
Taken in the same sequence, the figures for `Cc1c(Cl)cccc1NC(=O)COC(=O)CCc1nc2ccccc2n1-c1ccccc1` were 21.4%, 296% and 20.6%.
In the case of `COc1ccc(NC(=O)NC(C)c2ccc3c(c2)OCO3)c(OC)c1` (stereo not given), where the note is “at 7.7 µM”, the double positive events came to 16.4% and the percent response (vesicle binding) came to 118%. Under setting [1], this molecule showed a double positive events of 30%.
For `Clc1ccccc1OCc1nc(-c2ccncc2)no1` the same measures were 26.5%, 244% and 11.9%.
For `O=C(NNS(=O)(=O)c1ccc2ccccc2c1)c1cccs1` the same measures were 18.2%, 151% and 8.6%.
Turning to `CCOC(=O)CNC(=O)CSc1nc2cccnc2n1Cc1ccccc1`, where the note is “at 7.7 µM”, the double positive events amounted to 31% and the percent response (vesicle binding) is 210%. Besides, the double positive events under setting [1] worked out at 14.7%.
For `CC(=O)c1c(O)c2ccccc2n(Cc2ccccc2)c1=O` the same measures were 19.4%, 157% and 19.1%.
For `CCOc1ccc(S(=O)(=O)NCCC(=O)NCC(c2ccc(OC)cc2)N2CCCC2)cc1` (stereo not given) the same measures were 8.3%, 241% and 14.7%.
Regarding `C=CCn1c(SCC(=O)Nc2cc(C)on2)nc2sc3c(c2c1=O)CCCC3`, the double positive events reads like this: (at 7.7 µM) 7.4%; under setting [1], 11.7%. The molecule further came in with a percent response (vesicle binding) (at 7.7 µM) of 136%.
Taken in the same sequence, the figures for `c1ccc(COc2ccc(OCCN3CCCCC3)cc2)cc1` were 9.6%, 3.6% and 377%.
Under “at 7.7 µM”, `COc1cccc(N2CCN(CC(=O)Nc3nnc(-c4ccccc4)s3)CC2)c1` had a double positive events of 36.3% and a percent response (vesicle binding) of 292%. The double positive events under setting [1] was 12.1%.
For the setting “at 7.7 µM”, `CSc1ncc(CN2CCCCC2C(=O)Nc2ccc(Oc3ccccc3)nc2)cn1` (stereo not given) displayed a double positive events of 12.4% and a percent response (vesicle binding) of 155%. Under setting [1], the double positive events was 25.9%.
Taken in the same sequence, the figures for `CN1CCN(S(=O)(=O)c2cccc(C(=O)Nc3cc(C(F)(F)F)ccc3N3CCCCC3)c2)CC1` were 9.6%, 176% and 29%.
Under “at 7.7 µM”, `O=C(COC(=O)c1ccccc1Nc1ccc(SC(F)F)cc1)NCc1ccco1` showed a double positive events of 30.1% and a percent response (vesicle binding) of 246%. The same molecule displayed a double positive events under setting [1] of 21.5%.
Taken in the same sequence, the figures for `CCOC(=O)N1CCC(=NNc2ncc(C(F)(F)F)cc2Cl)CC1` were 25.9%, 205% and 13.4%.
Taken in the same sequence, the figures for `COc1ccc(S(=O)(=O)N2CCc3ccccc32)cc1C(=O)NCCc1ccccn1` were 8.3%, 330% and 18.6%.
For `COc1ccc(C2CC(=O)c3cnc(NC(=O)c4cc(OC)cc(OC)c4)nc3C2)cc1` (stereo not given) the same measures were 11.9%, 269% and 30.9%.
Consider `COc1ccc(N2CC(C(=O)N[C@@H](C)C(=O)NCc3ccccc3OC)CC2=O)cc1` (stereo not given in full), for which the double positive events runs as follows: (at 7.7 µM) 38.4%; under setting [1], 4.5%. This molecule had a percent response (vesicle binding) (at 7.7 µM) of 323%.
Taken in the same sequence, the figures for `Cc1c(C(=O)c2no[n+]([O-])c2C(=O)c2cnn(C)c2C)cnn1C` were 31.8%, 8.5% and 264%.
